Patent US20200325224A1
These are yes or no findings as the source states them, for the method shown. Some entries that bind do so weakly or less than the wild type.

Protein sequences, listed by entry. Tags and fused reporters are not part of them. Lines headed by an entry give the natural chain unless they say otherwise; changes in a name come on top.
UniProt Q95LI5: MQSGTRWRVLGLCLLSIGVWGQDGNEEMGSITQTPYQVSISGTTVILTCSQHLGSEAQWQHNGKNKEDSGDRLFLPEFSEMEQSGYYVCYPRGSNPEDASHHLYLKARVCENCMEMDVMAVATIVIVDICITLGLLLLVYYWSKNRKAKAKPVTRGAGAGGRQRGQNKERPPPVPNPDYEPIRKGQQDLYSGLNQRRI

Assays:
[1] = target: T1, cynomolgus CD3e amino acids 69-88 (SEQ ID NO: 29)-Linker-Biotin (cynomolgus); experiment: ELISA, peptide on streptavidin plate via C-terminal biotin
T1 sequence (peptide, C-terminal Linker-Biotin): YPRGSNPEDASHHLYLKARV

[2] = target: T2, Biotin-Linker-cynomolgus CD3e amino acids 69-88 (SEQ ID NO: 29) (cynomolgus); experiment: ELISA, peptide on streptavidin plate via N-terminal biotin
T2 sequence (peptide, N-terminal Biotin-Linker): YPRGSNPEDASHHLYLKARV

[3] = target: T2, Biotin-Linker-cynomolgus CD3e amino acids 69-88 (SEQ ID NO: 29) (cynomolgus); experiment: ELISA, biotinylated peptide on streptavidin plate
[4] = target: T1, cynomolgus CD3e amino acids 69-88 (SEQ ID NO: 29)-Linker-Biotin (cynomolgus); experiment: ELISA, biotinylated peptide on streptavidin plate
[5] = target: T3, cynomolgus CD3e amino acids 69-88 peptide (1:1 mixture of N- and C-terminally biotinylated variants) (cynomolgus); experiment: ELISA, biotinylated peptide on streptavidin plate
T3 sequence (peptide, biotin attached via linker to the N- or the C-terminus (1,1 mixture)): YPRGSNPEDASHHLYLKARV

[6] = target: cynomolgus CD3 epsilon (on expanded cynomolgus T cells) (cynomolgus) (UniProt Q95LI5); experiment: flow cytometry on expanded cynomolgus T cells
[7] = target: cynomolgus CD3e stalk-Fc(knob)-Avi/CD3d-stalk-Fc(hole) (cynomolgus); experiment: ELISA, biotinylated target on streptavidin plate
[8] = target: T3, cynomolgus CD3e amino acids 69-88 peptide (1:1 mixture of N- and C-terminally biotinylated variants) (cynomolgus); experiment: ELISA, biotinylated target on streptavidin plate

Measured: binding

B1: antibody clone 645 (antibody, V domains shown)
VH: QSLEESGGDLVKPGASLTLTCLASGFSFSGTYWICWVRQAPGKGLEWIGCISTDSGSTYYASWAKGRFTISKTSSTTVTLQMTSLTAADTATNFCARSAYASEGYALWGPGTLVTVSS
VL: AIVMTQTPSSKSVPVGDTVTINCQASESVYNNNYLSWYQQKPGQPPKLLIYYASTLASGVSSRFKGSGSGTQFTLTISDVVCDDAATYYCTGWKSITTDGMGAFGGGTEVVVKG
binds: all assays above
